Measurements from paper doi:10.1101/783837.

By UniProt entry, the sequences of proteins in these tests, tags left out.
UniProt Q10658: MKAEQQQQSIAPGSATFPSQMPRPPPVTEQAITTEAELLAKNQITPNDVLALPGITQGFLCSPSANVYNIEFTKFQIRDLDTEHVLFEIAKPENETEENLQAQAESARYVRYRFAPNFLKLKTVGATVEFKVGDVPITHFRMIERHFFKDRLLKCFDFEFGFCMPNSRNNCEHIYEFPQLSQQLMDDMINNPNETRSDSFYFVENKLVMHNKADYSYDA

Molecular target: UNC-119::GFP (unc-119::gfp knock-in) (C. elegans) (UniProt Q10658)
Test: affinity purification with mass spectrometry

- binding: binds
B1: UNC-33 (CRMP) (protein, UniProt Q01630 1-854)
chain: MFPFLAPIRSANHVEQQGTKYYVEITFLADSPYSRAPSSTGTEKSVIPTLRNLDDLETVSNKSRSSEGVNKLGSRPNSRSSAIVKKTSVSSLPTSARSEGKSSPIPVKDAIPAPARHKNKGLEMSSAMMELFGGGGSTSPAPSKRENPADAPSDRVVSNAKLSQPGPEWFEGFEQMDMTDIELPPDPNCPAEKVLRGEKSTPDFDSDWQEAKEDVLDPQSYPKSFNPAESLPGPDIGAGVDDEEEPEAEAQEMEEPQYESKVDEKDDDDNGSSSSKKGHPSEDGDSTRNGETPTDRRNSGAIEETADGESSAQSAAEKKNSGDDGNGGGGEMSILLVKNAQIVNDDAIFVADILIEDGIIQNVAPNLEAPEGAEVLDAAGKLALPAGIDVYTQVTDSSVDDLSTGCKSAIAGGTGTIVEVVRPRGAESVVSAVKRVKNQLEKSGISCHVALSVAITDFCEQEMSELVKNEGINSFVLDGVSLTDDKLLELFEHVKRLGALIRVVPENKSIVAMLEKKMLKLGVTGPEGFPQSRPESLEADRVSGVCVLGNLASCPISIVQVSSADSLAAIEKARASGALAHAEIASAAVTADGSALFSQDLRFASAHLTDVPLRRGAPDRMIGALSTQPLVVCTSGHRPVNSATRVAAKDFAIAQKGSTGAEERMAVVWERAVRSGRIDAMRFVAVTSTNAAKMFNMYPKKGRIAVGADADLVIWDASGKRVLESSRAQSSQENSMYDGLTVHSVVTATIVGGKIAYQNGEVREAPVAGGFLRLSPNSPYLFSMVGQRDKFANVERVEREASSQQQKPQQNGHHKNSGDFDRNRTKVMESSIDFGGSAANRPRNPPGGRTTGFW

Results are given in words; binding and its absence hold for the method and conditions named. Binding seen in cells or lysates may run through a third protein. These calls come from enrichment with a bait or labelling near it, and not all partners need be listed.
